Data as given in PubChem BioAssay AID743454 (Peter MacCallum Cancer Centre, 2014).

- Purpose: 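Search for knock-downs that restore vorinostat killing in resistant colon cancer cells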 (primary screen)
- Cell system: human HCT116-VR colon cancer cells, selected for vorinostat resistance
- Knock-down reagent: siRNA pool against human genes, 40 nM siRNA pool
- Duration: vorinostat for 24 h, read-out about 72 h after transfection
- Conditions: vorinostat at 2.5 µM final
- Measurement: 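Two measures, CellTiter-Fluor viability and luminescent caspase 3/7 activity, each as fold change against same-plate mock wells, mean of duplicates, then screen-wide robust z-score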
- Direction: viability robust z-score: higher = more viable cells than screen typical; caspase robust z-score: higher = more caspase 3/7 activity than screen typical
- Active means: 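Hits are knock-downs in viability class RV1/RV2 or caspase class CA1/CA2, excluding ones that killed cells in the no-drug cell-count arm; hits then retested with single siRNAs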
This is a random part of about 18,000 reagents tested. Of all reagents, 450 (2.5%) got an active call. 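Single biological run; no consistent viability z cut-off exists, so the class columns, not z-scores, define the calls.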 A number with no mark means an inactive call. Reagent sequences are not shown.

no.	gene	viability hit class	caspase hit class	viability robust z-score	caspase robust z-score
1	PPIL2 (peptidylprolyl isomerase like 2)	RV2 (reduced viability) (active)	no change	-3.38	4.67
2	TEAD2 (TEA domain transcription factor 2)	no change	no change	0.34	-0.43
3	ANKRD13B (ankyrin repeat domain 13B)	no change	no change	0.41	0.1
4	SLC27A6	no change	no change	-0.1	-0.93
5	TMEM86A (transmembrane protein 86A)	no change	no change	-0.28	0.67
6	SPI1 (Spi-1 proto-oncogene)	no change	no change	-1.43	-0.92
7	OR6K3 (olfactory receptor family 6 subfamily K member 3)	no change	no change	-0.15	3.69
8	OR11H12 (olfactory receptor family 11 subfamily H member 12)	no change	no change	0.05	0.52
9	PTGER2 (prostaglandin E receptor 2)	no change	no change	-1.67	0.23
10	CCL4L2 (C-C motif chemokine ligand 4 like 2)	no change	no change	0.62	-1
11	ARL10 (ARF like GTPase 10)	no change	no change	-0.24	-0.94
12	RAB2B (RAB2B, member RAS oncogene family)	no change	no change	0.72	-0.64
13	MLC1 (modulator of VRAC current 1)	no change	no change	-0.94	0.91
14	ZNF346 (zinc finger protein 346)	no change	no change	0.91	-0.92
15	KCNA4 (potassium voltage-gated channel subfamily A member 4)	no change	no change	-0.11	0.24
16	CHD2 (chromodomain helicase DNA binding protein 2)	no change	no change	1.13	2.48
17	FBXO33 (F-box protein 33)	no change	no change	-0.08	-0.43
18	RIOK2 (RIO kinase 2)	no change	no change	-2.03	-0.93
19	TRIM71 (tripartite motif containing 71)	no change (active)	CA1 (caspase activation)	0	6
20	ZRSR2	no change	no change	0.36	-0.6
21	SEMA4A (semaphorin 4A)	no change	no change	0.29	-0.04
22	AKAP6 (A-kinase anchoring protein 6)	no change	no change	-0.59	-0.36
23	PLAAT4 (phospholipase A and acyltransferase 4)	no change	no change	-0.22	4.88

Reformatted: 9 of the entries above.
gene | viability hit class | caspase hit class | viability robust z-score | caspase robust z-score
ARL10 (ARF like GTPase 10) | no change | no change | -0.24 | -0.94
RAB2B (RAB2B, member RAS oncogene family) | no change | no change | 0.72 | -0.64
MLC1 (modulator of VRAC current 1) | no change | no change | -0.94 | 0.91
ZNF346 (zinc finger protein 346) | no change | no change | 0.91 | -0.92
KCNA4 (potassium voltage-gated channel subfamily A member 4) | no change | no change | -0.11 | 0.24
CHD2 (chromodomain helicase DNA binding protein 2) | no change | no change | 1.13 | 2.48
FBXO33 (F-box protein 33) | no change | no change | -0.08 | -0.43
RIOK2 (RIO kinase 2) | no change | no change | -2.03 | -0.93
TRIM71 (tripartite motif containing 71) | no change (active) | CA1 (caspase activation) | 0 | 6

Continued:
no.	gene	viability hit class	caspase hit class	viability robust z-score	caspase robust z-score
24	RAP2A (RAP2A, member of RAS oncogene family)	no change	no change	0.18	0.69
25	GPI (glucose-6-phosphate isomerase)	no change (active)	CA2 (caspase activation)	-2.2	5.19
26	ATP6V1B2 (ATPase H+ transporting V1 subunit B2)	no change (active)	CA2 (caspase activation)	-1.6	7.62
27	MSLN (mesothelin)	no change	no change	-2.17	-0.42
28	TAS2R10 (taste 2 receptor member 10)	no change	no change	1.12	-0.22
29	TMEM158 (transmembrane protein 158)	no change	no change	-0.42	2.12
30	SLCO4A1	no change	no change	-1.25	-0.02
31	KRTAP5-1 (keratin associated protein 5-1)	no change	no change	0.25	0.6
32	RAB21 (RAB21, member RAS oncogene family)	no change	no change	0.76	-0.12
33	PTPRS (protein tyrosine phosphatase receptor type S)	RV2 (reduced viability) (active)	no change	-3.38	-0.13
34	SLC35A2	no change	no change	0.19	2.38
35	MTAP (methylthioadenosine phosphorylase)	no change	no change	0.22	-0.26
36	KRTAP10-5 (keratin associated protein 10-5)	no change	no change	0.6	1.18
37	CLEC1B (C-type lectin domain family 1 member B)	no change	no change	-0.5	0.95
38	RUSC2 (RUN and SH3 domain containing 2)	no change	no change	-2.74	-1.16
39	ZNF318 (zinc finger protein 318)	no change	no change	0.84	1.06
40	DELE1 (DAP3 binding cell death enhancer 1)	no change	no change	0.47	1.04
41	TCP11 (t-complex 11)	no change	no change	-1.04	1.44
42	MEP1A (meprin A subunit alpha)	no change	no change	0.08	-0.07
43	DNAJC27 (DnaJ heat shock protein family (Hsp40) member C27)	no change	no change	0.52	1.27
44	PGAM4 (phosphoglycerate mutase family member 4)	no change	no change	0.1	-1.03
45	TXLNB (taxilin beta)	no change	no change	-0.07	0.94
46	HNRNPD (heterogeneous nuclear ribonucleoprotein D)	no change	no change	-0.06	0.38
47	ALKAL1 (ALK and LTK ligand 1)	no change	no change	1.34	-0.69
48	IFNAR2 (interferon alpha and beta receptor subunit 2)	no change	no change	0.74	-0.88
49	MYPN (myopalladin)	no change	no change	-0.68	-0.8
50	IFT74 (intraflagellar transport 74)	no change	no change	0.23	-0.76
51	QSER1 (glutamine and serine rich 1)	no change	no change	1.53	1.83
52	CGA (glycoprotein hormones, alpha polypeptide)	no change	no change	-0.35	2.05
53	LPL (lipoprotein lipase)	no change	no change	-0.81	-0.43
54	CIPC (CLOCK interacting pacemaker)	no change	no change	0.43	0.37
55	RNF187 (ring finger protein 187)	no change	no change	0.98	-0.3
56	PMFBP1 (polyamine modulated factor 1 binding protein 1)	no change	no change	0.83	-0.11
57	EMG1 (EMG1 N1-specific pseudouridine methyltransferase)	no change	no change	-1.02	-0.45
